Test results from publication PMC9657053.
No constants are given. Whether binding was seen depends on the method and setting. Binding seen in cells or lysates may run through a third protein. Some entries that bind do so weakly or less than the wild type.

Target: T1, snail family transcriptional repressor 2 (SNAI2) (human (endogenous in SW-1990)) (UniProt O43623)
T1 sequence: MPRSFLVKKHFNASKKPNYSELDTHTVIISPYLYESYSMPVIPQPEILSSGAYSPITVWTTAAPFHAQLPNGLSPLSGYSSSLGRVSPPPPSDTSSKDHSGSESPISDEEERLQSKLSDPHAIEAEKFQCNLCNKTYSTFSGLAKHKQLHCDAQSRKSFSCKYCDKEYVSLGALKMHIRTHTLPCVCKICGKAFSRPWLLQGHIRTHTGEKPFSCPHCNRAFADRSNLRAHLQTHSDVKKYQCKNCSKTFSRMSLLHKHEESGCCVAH
Test: co-IP; SW-1990 cell lysate, 1.0 mg total protein incubated with anti-IgG, anti-SNAI2 and anti-CDCA8 at 4 °C overnight; agarose beads 2 h at 4 °C; western blotting

B1: Cell division cycle associated 8 (CDCA8) (protein, UniProt Q53HL2 1-280)
chain: MAPRKGSSRVAKTNSLRRRKLASFLKDFDREVEIRIKQIESDRQNLLKEVDNLYNIEILRLPKALREMNWLDYFALGGNKQALEEAATADLDITEINKLTAEAIQTPLKSAKTRKVIQVDEMIVEEEEEEENERKNLQTARVKRCPPSKKRTQSIQGKGKGKRSSRANTVTPAVGRLEVSMVKPTPGLTPRFDSRVFKTPGLRTPAAGERIYNISGNGSPLADSKEIFLTVPVGGGESLRLLASDLQRHSIAQLDPEALGNIKKLSNRLAQICSSIRTHK
binding: binds
